Measurements from “University of Dundee, Small-Polar-MMV Screening Library” (2021), ChEMBL document CHEMBL3988442.

Sequences of proteins named here, by UniProt entry; tags and fusion partners are left off.
UniProt E9BF75, entry or part of it: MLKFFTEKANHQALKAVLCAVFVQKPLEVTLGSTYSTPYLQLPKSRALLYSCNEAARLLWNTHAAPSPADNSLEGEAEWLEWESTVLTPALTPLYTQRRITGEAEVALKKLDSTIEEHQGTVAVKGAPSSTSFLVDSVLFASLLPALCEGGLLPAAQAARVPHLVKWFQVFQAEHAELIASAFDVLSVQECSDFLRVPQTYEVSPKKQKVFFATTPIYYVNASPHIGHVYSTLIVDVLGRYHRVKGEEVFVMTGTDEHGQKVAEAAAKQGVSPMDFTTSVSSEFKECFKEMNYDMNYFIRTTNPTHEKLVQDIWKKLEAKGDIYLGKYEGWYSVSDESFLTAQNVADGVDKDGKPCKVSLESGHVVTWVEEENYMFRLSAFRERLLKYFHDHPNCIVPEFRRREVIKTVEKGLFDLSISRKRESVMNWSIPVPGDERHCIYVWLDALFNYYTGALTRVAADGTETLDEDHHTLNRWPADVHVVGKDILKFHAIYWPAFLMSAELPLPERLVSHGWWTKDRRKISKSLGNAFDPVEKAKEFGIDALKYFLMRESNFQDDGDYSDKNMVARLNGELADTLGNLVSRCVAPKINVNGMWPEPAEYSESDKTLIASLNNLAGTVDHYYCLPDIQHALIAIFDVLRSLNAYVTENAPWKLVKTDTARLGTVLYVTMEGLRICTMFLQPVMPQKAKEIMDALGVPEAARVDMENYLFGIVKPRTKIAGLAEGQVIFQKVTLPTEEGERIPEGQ

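Primary screen of methionyl-tRNA synthetase; the read-out is not stated. Target: Methionyl-tRNA synthetase (putative), Leishmania donovani (UniProt E9BF75). The test concentration is not given. Values are per cent inhibition. About 68,000 compounds were tested under these conditions; 0.035% (about 24) showed 50% or more at least once.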

Results are percentages, as filed. The controls that fix the scale are not given in the record; negative values are as filed. This is an unselected part of the compounds tested.

| compound | Inhibition |
|---|---|
| `CC(C)CC1COCCN1C(=O)Cc1cccs1` (stereo not given) | 14.09 |
| `CNC(=O)c1ccc(C2CN(C(=O)COC)CCO2)nc1` (stereo not given) | 14.34 |
| `O=C(NCCCN1CCCC1=O)c1nc(-c2ccc3[nH]ccc3c2)no1` | 13.03 |
| `Cc1noc(C)c1C1CCCN1C(=O)CN1C(=O)OC(C)(C)C1=O` (stereo not given) | 10.9 |
| `CCCc1nc(NCCCO)c2c(n1)c(C)nn2CC` | 16.18 |
| `Cc1ncsc1C(=O)N1CCCC(CO)(CC2CC2)C1` (stereo not given) | 5 |
| `COc1ccc(CCNC(=O)NCC(O)c2cccc(F)c2)cc1` (stereo not given) | 10.83 |
| `Cc1cc2ncc(CN(C)C)c(C3CCN(C)CC3)n2n1` | -4.984 |
| `c1cncc(-c2c[nH]c([C@@H]3COCCN3Cc3ccncc3)n2)c1` | 12.03 |
| `COCc1nc2ncc3c(=O)n(-c4ccc(C(C)=O)cc4)ccc3n2n1` | 18.62 |
| `Cc1cc(C(=O)Nc2ccnc(OC3CCOC3)c2)c(C)o1` (stereo not given) | 11.41 |
| `NC(=O)C1CCN(CCc2ccc(NCc3ccsc3)cc2)CC1` | 11.87 |
| `Cc1nc(CN2C[C@@H]3CN(C(=O)c4ccco4)C[C@@H]3C2=O)cs1` | 7.302 |
| `CCC(C)N(Cc1cc(C)n[nH]1)Cc1ccccc1Cl` (stereo not given) | 8.052 |
| `COc1ccccc1C1SCC(=O)Nc2c1c(=O)[nH]n2C1CCOCC1` (stereo not given) | 11.21 |
| `O=C(Nc1ccccc1)[C@H]1O[C@H](CCN2CCNCC2)CC[C@@H]1O` | 4.511 |
| `CCc1ncc(C(=O)N2CCOCC2c2c(C)n[nH]c2C)s1` (stereo not given) | 8.589 |
| `CC(C)=CCN1C[C@H]2CC[C@@H]1CN(Cc1cc(=O)[nH]c(=O)[nH]1)C2` | 1.299 |
| `CN(C)C(=O)NCc1nnc2n1CCN(Cc1ccsc1)C2` | 11.28 |
| `CCc1cccc(N2CCC(NC(=O)C3CCC3)CC2)c1` | 14.61 |
| `c1cc(-c2ccc3c(c2)CCC32CCNCC2)ccn1` | -0.3623 |
| `CC(=O)c1ccc(C(=O)NCCCOC(C)c2ccccc2)s1` (stereo not given) | 4.225 |
| `CN(Cc1nccn1CC(F)(F)F)C(=O)c1ccc(F)cc1F` | 17.61 |
| `O=C(Cc1cccc(O)c1)N1CCCC(OCc2cccnc2)C1` (stereo not given) | 11.72 |
| `O=S1(=O)CCC(N(Cc2nc3ccccc3o2)Cc2cccs2)C1` (stereo not given) | 5.866 |
| `CN(Cc1ccon1)C1CCN(c2cccc(-c3cscn3)c2)CC1` | 17.07 |
| `CN(CCNc1cc(N2CCCC2CO)ncn1)Cc1ccccc1` (stereo not given) | 4.438 |
| `O=C(O)c1ccc(S(=O)(=O)Nc2cccc(CC(F)(F)F)c2)c(F)c1` | 3.846 |
| `COCc1cc(N2CCOC(c3ccc(F)cc3)C2)ncn1` (stereo not given) | 12.3 |
| `Cc1nc(N2CCOCC2)nc2c1CN(C(=O)C(C)C)CC2` | 8.654 |
| `CN1CCCN(C(=O)c2ccc3c(c2)nc(N2CCOCC2)n3C)CC1` | 7.965 |
| `Cc1csc2c(C3CCCN(C(=O)CCn4ccnc4)C3)nc(C)n12` (stereo not given) | 0.9524 |
| `CC[C@@H](c1ccccc1)n1c(CCN)n[nH]c1=O` | 11.29 |
| `Cc1cc(-c2nn(C)c(Cl)c2CN2CCCCC(N)C2)no1` (stereo not given) | 16.48 |
| `CC(CN1CC[C@@H]2CCCC[C@@H]2C1)n1cnc2ccccc21` (stereo not given in full) | 3.753 |
| `COc1cccc(-c2ncc(CN3CC[C@H](CO)[C@@H](O)C3)s2)c1` | 8.362 |
| `Cn1cc(N2CCC(Nc3ccc4nccnc4n3)C2=O)cn1` (stereo not given) | 19.06 |
| `Cc1cc(NCCS(C)(=O)=O)nc2cc3c(cc12)CCC3` | 10.08 |
| `Cc1cc(C)c2c(NC(C)c3nncn3C3CCCC3)ncnc2n1` (stereo not given) | 24.37 |
| `CSCC[C@@H](CO)NC(=O)c1sc(-c2ccc(Cl)cc2)nc1C` | 8.182 |
| `O=C1NCc2ccccc2CC12CCCN(Cc1ccsc1)C2` (stereo not given) | 34.86 |
| `Cc1csc(C(=O)N2CCC3(CC(N(C)c4ccncn4)C3)C2)c1` (stereo not given) | 9.647 |
| `Cc1ccc(C(=O)N2CC(C(N)=O)O[C@H](C)C2)c(C)c1` (stereo not given in full) | 1.344 |
| `CCn1cc(CN2CCN(Cc3cccc(OC)c3)C(=O)C2)cc1C#N` | 10.42 |
| `Fc1cccc(N2CCCC3(CN(Cc4nccs4)CCO3)C2)c1` (stereo not given) | 21.43 |
| `CC(c1ccc(Br)cc1)N1CCCN(C(N)=O)CC1` (stereo not given) | 7.434 |
| `COc1ccc(OC)c(CN(C)c2ncc(S(N)(=O)=O)s2)c1` | 14.8 |
| `COC(=O)c1cccc(C(=O)N(C)Cc2ccsc2)c1` | 4.673 |
| `Cc1ccc(C)c(S(=O)(=O)N2CCN(C)C3(CCC(=O)N(C)CC3)C2)c1` (stereo not given) | 9.966 |
| `O=C(c1ccc2nncn2c1)N1CCSC2(CCCCC2)C1` | 8.271 |
| `CCC(CC)C(=O)n1ccn(S(=O)(=O)c2ccc(C)cc2)c1=O` | 11.08 |
| `Cc1oc(C(=O)O)cc1S(=O)(=O)Nc1ccc(Cl)c(Cl)c1` | 14.76 |
| `OCC1(O)CCN(c2ccnc3c(C(F)(F)F)cccc23)CC1` | 14.93 |
| `Cc1noc(C)c1-c1nc(N(C)CCN(C)C)ncc1-c1cnccn1` | 12.22 |
| `O=C(CCCc1ccccn1)N1CCOc2ccc(F)cc21` | 15.22 |
| `COCCn1ccnc1CN1CCc2[nH]cnc2C1c1cnn(C)c1C` (stereo not given) | 18.06 |
| `Cc1nc(C)c(C(C)NCc2c(C(C)C)nn(C)c2N(C)C)s1` (stereo not given) | 9.019 |
| `CCc1nc2c(N3CCC4(CC3)CC(=O)N(CC)C4)ncnc2o1` | 9.524 |
| `CN(C)CCN1CCN(Cc2cccs2)Cc2cccnc21` | 15.23 |
| `Cc1ccc(OCCC(=O)NCCCN2CCCC2=O)c(C)c1` | 10.82 |
| `COCCC(=O)N1CCN(CC2CC2)c2ccccc21` | 16.54 |
| `CNc1cc2c(nn1)CCN(C(=O)c1ccc3c(c1)CCC3)C2` | 8.287 |
| `CN(C(=O)c1ccc(OCC(F)F)nc1)c1ccc2c(c1)CCO2` | 2.486 |
| `Cc1ccccc1N1CCCN(CC2(O)CCCNC2)CC1` (stereo not given) | 9.192 |
| `O=C(Cc1ccc2c(c1)CCC2)N1CCN(c2cnccn2)CC1` | 15.64 |
| `CN(Cc1ccncn1)c1nccc(CCC(F)(F)F)n1` | 3.901 |
| `CCCc1nc(C(=O)N2CCN(S(=O)(=O)CC)CC2)cs1` | 5.396 |
| `O=C(C1CCC1)N1CCC(C2CCN(Cc3ccc(Cl)cc3)C2)CC1` (stereo not given) | 18.55 |
| `Fc1cc(CNCCn2cccn2)ccc1-n1cncn1` | 18.21 |
| `COCCN1CCCC1c1ccnc(-c2ccccc2)n1` (stereo not given) | 19.42 |
| `COc1c(CNCCC(=O)NC2CCCC2)c(C(C)C)nn1C` | 12.01 |
| `CCN1CC[C@]2(CN(C(=O)[C@H]3CCCO3)C[C@H]2c2ccccc2)C1=O` | 12.89 |
| `Cc1nc(C2(O)CCCNCC2)sc1CCOc1ccc(F)cc1` (stereo not given) | 3.236 |
| `O=C(NCc1cccs1)[C@@H]1CC[C@@H]2[C@@H](CCN2CC2CCC2)O1` | 19.31 |
| `CC(C)c1noc(CS(=O)(=O)CC(=O)NCc2cccs2)n1` | 5.615 |
| `Cc1c(C(C)NCc2cnn(C)c2)cnn1-c1ccccc1` (stereo not given) | 5.025 |
| `Cc1cccc2[nH]cc(CC(=O)N3CCC(Nc4cccnn4)CC3)c12` | 10.12 |
| `NCC1CN(c2nc(-c3cccnc3)nc3c2CCNCC3)CCO1` (stereo not given) | 19.15 |
| `CCc1nccn1C1CCCN(C(=O)c2cc3nc(C)ccc3o2)C1` (stereo not given) | -1.307 |
| `O=C(C1CCC1)N1CCN(Cc2ccccc2F)[C@H]2CS(=O)(=O)C[C@H]21` | 0.5376 |
| `O=C(N1CCCC1)N1CCc2c(CNc3ncccn3)cncc2C1` | 21.48 |
| `O=C1OCCCN1Cc1nc(-c2ccc(N3CCCCC3)cc2)no1` | 16.72 |
| `CS(=O)(=O)N1CCCC12CCN(Cc1nccs1)C2` (stereo not given) | 10.03 |
| `CCO[C@H]1CC[C@H]2[C@@H]1OCCN2C(=O)COc1ccccc1` | 6.718 |
| `Cc1cc(CN(C)Cc2ncc(-c3ccccc3)o2)no1` | 15.19 |
| `O=C(CN(CC(O)c1ccc(F)cc1)C1CC1)NC1CCOCC1` (stereo not given) | 22.16 |
| `O=C(NCC1CC1)C1CN(C(=O)Nc2ccccc2)CC12CCOCC2` (stereo not given) | -1.333 |
| `Cc1csc(C2(NCc3nnc(-c4ccco4)o3)CCCC2)n1` | 12.98 |
| `CC(C)N(Cc1ccccn1)C(=O)CCC(=O)c1ccc(F)cc1F` | 4.749 |
| `c1csc(CN2CC[C@H]3O[C@@H](COCC4CC4)CC[C@H]32)c1` | 6.593 |
| `Cc1noc([C@H]2C[C@H]3OCC[C@H]3N(C3CCC3)C2)n1` | 9.816 |

7 of the entries, repeated:

| compound | Inhibition |
|---|---|
| `CCC(CC)C(=O)n1ccn(S(=O)(=O)c2ccc(C)cc2)c1=O` | 11.08 |
| `CC[C@@H](c1ccccc1)n1c(CCN)n[nH]c1=O` | 11.29 |
| `CCCc1nc(NCCCO)c2c(n1)c(C)nn2CC` | 16.18 |
| `CCc1ncc(C(=O)N2CCOCC2c2c(C)n[nH]c2C)s1` (stereo not given) | 8.589 |
| `Cc1ccc(C(=O)N2CC(C(N)=O)O[C@H](C)C2)c(C)c1` (stereo not given in full) | 1.344 |
| `O=C(CCCc1ccccn1)N1CCOc2ccc(F)cc21` | 15.22 |
| `CN(CCNc1cc(N2CCCC2CO)ncn1)Cc1ccccc1` (stereo not given) | 4.438 |